# Measurements reported in PubChem BioAssay AID1259308 (NCATS, 2017).
# Test: 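Knock-downs that increase output of a recombinant reporter protein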 (primary screen)
# Cells: human HEK293 embryonic kidney cells stably expressing firefly luciferase (HEK-CMV-Luc2-Hygro)
# Reagents: single siRNA against human genes, 0.8 pmol siRNA per well
# Duration: 72 h
# Measurement: 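Reporter luminescence and viable-cell signal on separate replicate plates, given as percent of non-targeting control and median/MAD z-scores, plus per-cell luciferase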
# Scale: total luciferase, z-score and total luciferase, % of control: higher = more reporter protein produced; luciferase per cell, z-score: higher = more reporter output per viable cell
# Call rule: 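Active when the median/MAD z-score for overall luciferase is greater than 3; a gene was taken forward for validation with new siRNAs if at least two of its three siRNAs passed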
# Calls: active = raised luciferase; inactive = no rise
# The deposit covers about 59,000 reagents; this is a part drawn at random. In the full data, about 1,510 (2.6%) were called active. 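Calls use total luciferase alone and ignore viability, so some active siRNAs may act by altering cell number.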 Reagents against one gene are numbered here. Further read-outs or replicates are left out here.
target gene,reagent no.,"total luciferase, z-score","total luciferase, % of control","luciferase per cell, z-score",call
MOB1B,1,-0.316,75.6,0.121,inactive
MOB1B,2,-0.18,78.3,-0.376,inactive
MOB1B,3,1.1,104,0.816,inactive
NKX2-1,1,-0.0598,80.7,-0.538,inactive
NKX2-1,2,-0.671,68.5,-1.1,inactive
NKX2-1,3,1.37,109,0.606,inactive
HBEGF,1,-0.15,78.9,-0.437,inactive
HBEGF,2,-0.29,76.1,-0.739,inactive
HBEGF,3,-0.363,74.7,-0.615,inactive

Continued (2 carried over from the part before).
target gene,reagent no.,"total luciferase, z-score","total luciferase, % of control","luciferase per cell, z-score",call
HBEGF,2,-0.29,76.1,-0.739,inactive
HBEGF,3,-0.363,74.7,-0.615,inactive
SH2D5,1,-0.564,70.7,-0.429,inactive
SH2D5,2,-0.664,68.7,1.03,inactive
SH2D5,3,-0.801,66,-0.748,inactive
RGS8,1,3.47,151,2.51,active
RGS8,2,2.13,124,1.28,inactive
RGS8,3,1.45,111,0.614,inactive
MNDA,1,-0.56,70.7,-0.391,inactive
MNDA,2,-1.13,59.5,-1.25,inactive
MNDA,3,-0.591,70.1,1.03,inactive
RGPD3,1,1.93,120,1.73,inactive
RGPD3,2,0.0919,83.7,0.0267,inactive
RGPD3,3,-0.593,70.1,-0.228,inactive
VPS16,1,0.25,86.9,0.0104,inactive
VPS16,2,-2.16,39,-1.75,inactive
VPS16,3,1.4,110,1.4,inactive
